Laboratory results reported in PMC9655011.
Results are given in words; binding and its absence hold for the method and conditions named. In cells and extracts the contact can be indirect.

By UniProt entry, the sequences of proteins in these tests, tags left out. Residues count along the entry.
UniProt P03950, residues 25-147: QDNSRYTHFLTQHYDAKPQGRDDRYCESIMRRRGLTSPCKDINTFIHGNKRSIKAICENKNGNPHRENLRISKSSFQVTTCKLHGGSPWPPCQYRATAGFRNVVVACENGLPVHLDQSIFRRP

Molecular target: C-terminally His-tagged ANG (angiogenin) (human) (UniProt P03950)
Test: co-IP; ANG-His precipitated from U2OS cytoplasmic lysate (0.5% NP-40 in PBS, diluted 10 times with 0.1% NP-40 in PBS) with anti-6xHistidine antibody on Protein G Sepharose, room temperature 1 h; Western blot for RNH1 and RTCB; non-stress cells, and cells treated 2 h with sodium arsenite 500 uM, H2O2 1 mM, menadione 100 uM, with or without N-acetyl-L-cysteine 5 mM

B1: RTCB (enzyme, UniProt Q9Y3I0 1-505)
chain: MSRSYNDELQFLEKINKNCWRIKKGFVPNMQVEGVFYVNDALEKLMFEELRNACRGGGVGGFLPAMKQIGNVAALPGIVHRSIGLPDVHSGYGFAIGNMAAFDMNDPEAVVSPGGVGFDINCGVRLLRTNLDESDVQPVKEQLAQAMFDHIPVGVGSKGVIPMNAKDLEEALEMGVDWSLREGYAWAEDKEHCEEYGRMLQADPNKVSARAKKRGLPQLGTLGAGNHYAEIQVVDEIFNEYAAKKMGIDHKGQVCVMIHSGSRGLGHQVATDALVAMEKAMKRDKIIVNDRQLACARIASPEGQDYLKGMAAAGNYAWVNRSSMTFLTRQAFAKVFNTTPDDLDLHVIYDVSHNIAKVEQHVVDGKERTLLVHRKGSTRAFPPHHPLIAVDYQLTGQPVLIGGTMGTCSYVLTGTEQGMTETFGTTCHGAGRALSRAKSRRNLDFQDVLDKLADMGIAIRVASPKLVMEEAPESYKNVTDVVNTCHDAGISKKAIKLRPIAVIKG
- binding: no binding
